Results deposited as PubChem BioAssay AID652259 (Drosophila RNAi Screening Center, 2013)
Assay: 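Genome-wide hunt for genes that control Wingless pathway activity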 (primary screen). Cells: Drosophila clone 8 imaginal disc epithelial cells. Reagents: long dsRNA against Drosophila genes. Challenge: pathway stimulated by co-transfected Wingless expression plasmid. Read-out: 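Dual luciferase reads per well after Wingless plasmid stimulation: reporter firefly light and Renilla control light; activity is firefly divided by Renilla, a ratio not deposited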. Direction: firefly reporter light: higher = more Wg reporter light, before normalisation; Renilla control light: higher = more transfected or surviving cells. Hit rule: 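a knock-down is a candidate when at least two out of four statistical tests show it departing from its plate mean; one test alone signals a weak candidate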. Meaning of the calls: active = candidate regulator (raises or lowers reporter); inactive = not a candidate.
In all, the deposit lists about 22,000 reagents; shown is an unselected part of those with a known target gene and a result. In the full data, 233 (1.1%) got an active call. 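Light values are raw, unnormalised plate reads; the ratio scores behind the reporter calls were not deposited.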 Reagents against one gene are numbered here. Names joined by + are all predicted targets of the reagent. Not stated in the record: the amount of reagent, the time to read-out, the dose of the treatment.

gene knocked down,reagent no.,"reporter change call, replicate 1","firefly reporter light, replicate 1","firefly reporter light, replicate 2","Renilla control light, replicate 1","Renilla control light, replicate 2",outcome
SiaT,1,,2064,4873,589,1834,inactive
CG18469,1,,4.03e5,4.49e5,2.23e5,2.22e5,inactive
CG7691,1,,11792,,3209,,inactive
CG34244,1,,2803,,1066,,inactive
CG11771,1,,2884,6152,1530,1616,inactive
CG33333,1,,2292,,1500,,inactive
BOD1,1,Wg reporter activity raised,14243,5011,1425,912,inactive
CG1628,1,,3639,5504,1224,2314,inactive
CG14459,1,Wg reporter activity raised,14304,,1349,,active
CG30103,1,,5317,,2054,,inactive
CAH5,1,,6944,,3018,,inactive
Pen,1,,6018,,2113,,inactive
primo-2 + primo-1,1,,21680,,5187,,inactive
Unc-76,1,,14528,,10008,,inactive
Unc-76,2,,30595,,15576,,inactive
Bx,1,,17363,,4628,,inactive
Bx,2,,22272,,10547,,inactive
CG2218,1,,3264,5760,1275,1384,inactive
CG17196,1,,25776,,19900,,inactive
Sox14,1,,4285,11376,1029,3232,inactive
Cyp309a1,1,,2234,5220,1280,2392,inactive
CG34126,1,,2683,8308,803,2352,inactive
CG34126,2,,5.38e5,6.45e5,1.57e5,2.08e5,inactive
CG42361,1,,2570,9830,824,2304,inactive
Osi3,1,,14947,,3473,,inactive
Prosbeta7,1,,3035,,1847,,inactive
CG2182,1,,3555,,2295,,inactive
Sema1b,1,,19920,,6263,,inactive
RpS12,1,,4404,,3266,,inactive
CG12091,1,,3842,,1724,,inactive
Inx2,1,,2763,7570,1042,2365,inactive
Tsf2,1,,2741,,1303,,inactive
CG17570,1,,18934,,9959,,inactive
CG17570,2,,1683,3097,593,1784,inactive
Xpc,1,,8176,,1296,,inactive
Pdi,1,,4151,,2908,,inactive
Srg1,1,,29590,,19979,,inactive
scramb1,1,,7603,,2748,,inactive
scramb1,2,,8773,,3120,,inactive
scramb1,3,,10310,,3005,,inactive
CG43339,1,,8272,,2717,,inactive
Parp16,1,,6440,,2384,,inactive
mldr,1,,28188,,12134,,inactive
Cpr35B,1,,4036,8932,1773,4521,inactive
Cpr35B,2,,7.23e5,7.48e5,2.21e5,2.75e5,inactive
CREG,1,,14405,,3808,,inactive
Ugt35E2,1,,14605,,4402,,inactive
CycT,1,,1339,,664,,inactive
CG34367,1,,2121,9152,893,4484,inactive
CG34367,2,,1840,8285,736,4128,inactive
Tango10,1,,4373,10390,1728,4534,inactive
Ziz,1,,2801,6877,736,2580,inactive
Ziz,2,,2419,4982,752,1952,inactive
snz,1,,28002,,12374,,inactive

Not a retest: entries from further up.
gene knocked down,reagent no.,"reporter change call, replicate 1","firefly reporter light, replicate 1","firefly reporter light, replicate 2","Renilla control light, replicate 1","Renilla control light, replicate 2",outcome
Parp16,1,,6440,,2384,,inactive
mldr,1,,28188,,12134,,inactive
Cpr35B,1,,4036,8932,1773,4521,inactive
Cpr35B,2,,7.23e5,7.48e5,2.21e5,2.75e5,inactive
CREG,1,,14405,,3808,,inactive
Ugt35E2,1,,14605,,4402,,inactive
CycT,1,,1339,,664,,inactive
CG34367,1,,2121,9152,893,4484,inactive

Further reagents follow.
gene knocked down,reagent no.,"reporter change call, replicate 1","firefly reporter light, replicate 1","firefly reporter light, replicate 2","Renilla control light, replicate 1","Renilla control light, replicate 2",outcome
Sugb,1,,4295,,1588,,inactive
ex,1,,8672,,3481,,inactive
stas,1,,3597,10124,1289,4976,inactive
step,1,,2215,6439,789,2775,inactive
step,2,,2907,10498,1146,4519,inactive
mthl15,1,,17209,,7084,,inactive
CG32454,1,,6041,,2355,,inactive
CG17385,1,,6864,,2240,,inactive
CG7675,1,,2864,8199,1088,2944,inactive
CG34457,1,,6459,,2349,,inactive
RabX2,1,,14505,,12172,,inactive
CR31822,1,,19768,,8541,,inactive
CG4716,1,,13824,,4692,,inactive
REPTOR-BP,1,,4336,7227,1136,3499,inactive
CG15760,1,,21861,,11330,,inactive
Top1,1,,16309,,7328,,inactive
cnc,1,,21200,,12816,,inactive
cnc,2,,3346,7297,1299,2352,inactive
cnc,3,,15443,,14648,,inactive
cnc,4,,21924,,13664,,inactive
COX5B,1,,3337,8400,763,2384,inactive
HisT,1,,15092,,6496,,inactive
HisT,2,,20860,,8614,,inactive
HisT,3,,14886,,1408,,inactive
EcR,1,,4555,13984,966,3312,inactive
EcR,2,,8773,,2391,,inactive
CG33998,1,,15520,,11641,,inactive
Mipp2,1,,2265,8419,680,2663,inactive
t-cup,1,,22133,,12225,,inactive
CG42319,1,,5316,,2919,,inactive
CG42319,2,,4320,,2130,,inactive
CG42319,3,,6.83e5,6.00e5,2.74e5,1.98e5,inactive
grsm,1,,13878,,3450,,inactive
grsm,2,,16096,,2898,,inactive
Pig1,1,,15280,,7584,,inactive
Acp53C14c,1,,17984,,12156,,inactive
Dad1,1,,2121,7283,916,3197,inactive
CG43071,1,,11232,,7021,,inactive
CG5466,1,,11932,,752,,inactive
